According to publication PMC7166090:
Substitutions are numbered along the chain they refer to. For some assays here: A negative result means that nothing was seen under these conditions. For some assays here: A weaker result is weaker than the reference pair of the same experiment. For some assays here: Where a protein sequence is shown, tags need not be part of it.

The chains behind the UniProt entries cited, without tags or fusion partners. Where a name states a change or a piece, a line headed by the entry shows the natural chain unless it says otherwise. Residues count along the entry.
UniProt P02769, 25-607: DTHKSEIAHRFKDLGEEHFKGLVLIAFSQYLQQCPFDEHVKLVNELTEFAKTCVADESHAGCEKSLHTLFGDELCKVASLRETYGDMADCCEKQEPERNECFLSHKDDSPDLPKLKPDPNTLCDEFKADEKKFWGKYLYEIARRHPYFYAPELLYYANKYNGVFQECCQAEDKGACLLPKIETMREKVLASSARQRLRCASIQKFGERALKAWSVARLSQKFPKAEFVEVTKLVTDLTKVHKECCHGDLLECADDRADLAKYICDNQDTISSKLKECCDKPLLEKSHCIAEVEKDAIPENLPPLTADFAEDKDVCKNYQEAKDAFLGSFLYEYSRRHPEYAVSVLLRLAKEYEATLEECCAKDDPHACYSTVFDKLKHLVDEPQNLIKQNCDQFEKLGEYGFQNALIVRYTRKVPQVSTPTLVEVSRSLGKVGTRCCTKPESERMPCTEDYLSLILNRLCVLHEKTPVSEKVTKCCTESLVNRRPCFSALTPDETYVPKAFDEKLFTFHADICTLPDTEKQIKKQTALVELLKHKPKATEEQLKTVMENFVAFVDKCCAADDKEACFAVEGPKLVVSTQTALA
UniProt P03771: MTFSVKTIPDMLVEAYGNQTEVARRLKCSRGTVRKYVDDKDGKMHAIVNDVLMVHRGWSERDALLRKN

Assays:
BSA = BSA (UniProt P02769); test: FRET; conditions: no significant difference from no protein; commercial protein
[1] = target: T1, His-NinH H55A A15T,H55A (Bacteriophage lambda (cI857 Sam7)) (UniProt P03771); test: MST; conditions: text: bound poorly; MST: PBS pH 7.4 + 0.05% Tween-20, 22 C; recombinant protein; residues 1-68; protein details: N-His6; label: 5'-Cy5 on strand 1
T1 sequence (looked up): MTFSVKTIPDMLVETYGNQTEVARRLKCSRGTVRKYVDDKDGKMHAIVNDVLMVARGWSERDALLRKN

[2] = target: T2, His-NinH S29A R30A A15T,S29A,R30A (Bacteriophage lambda (cI857 Sam7)) (UniProt P03771); test: MST; conditions: MST: PBS pH 7.4 + 0.05% Tween-20, 22 C; recombinant protein; residues 1-68; protein details: N-His6; label: 5'-Cy5 on strand 1
T2 sequence (looked up): T1 sequence (looked up) with S29A, R30A, A55H

[3] = target: T3, His-NinH H55A R56A A15T,H55A,R56A (Bacteriophage lambda (cI857 Sam7)) (UniProt P03771); test: MST; conditions: table: no binding, footnote: only weak binding, no Kd; MST: PBS pH 7.4 + 0.05% Tween-20, 22 C; recombinant protein; residues 1-68; protein details: N-His6; label: 5'-Cy5 on strand 1
T3 sequence (looked up): T1 sequence (looked up) with R56A

[4] = target: T4, His-NinH R30A A15T,R30A (Bacteriophage lambda (cI857 Sam7)) (UniProt P03771); test: MST; conditions: MST: PBS pH 7.4 + 0.05% Tween-20, 22 C; recombinant protein; residues 1-68; protein details: N-His6; label: 5'-Cy5 on strand 1
T4 sequence (looked up): T1 sequence (looked up) with R30A, A55H

| Sequence | binding result (BSA) | Kd [1] [µM] | Kd [2] [µM] | binding result [3] | Kd [4] [µM] |
| --- | --- | --- | --- | --- | --- |
| TGGGTCAACGTGGGCAAAGA (double strand) [DS20 FRET (o-FLU20/o-TET20)] | no binding |  |  |  |  |
| ACCGATCAAGAATTGTGCAT (double strand) [Cy520 (NinH consensus)] |  | > 2.5 | > 5.5 | binds more weakly | > 9.9 |
